We go through two molecules from patent US20190382454A1, “A MODIFIED PEPTIDE AS AN ANTICANCER AGENT” (Amrita Therapeutics Limited, priority 2015, published 2019).

The target in the experiment is T1, Scaffold Matrix Attachment Region Binding Protein 1 (SMAR1), full length (UniProt Q8N9N5).
T1 sequence: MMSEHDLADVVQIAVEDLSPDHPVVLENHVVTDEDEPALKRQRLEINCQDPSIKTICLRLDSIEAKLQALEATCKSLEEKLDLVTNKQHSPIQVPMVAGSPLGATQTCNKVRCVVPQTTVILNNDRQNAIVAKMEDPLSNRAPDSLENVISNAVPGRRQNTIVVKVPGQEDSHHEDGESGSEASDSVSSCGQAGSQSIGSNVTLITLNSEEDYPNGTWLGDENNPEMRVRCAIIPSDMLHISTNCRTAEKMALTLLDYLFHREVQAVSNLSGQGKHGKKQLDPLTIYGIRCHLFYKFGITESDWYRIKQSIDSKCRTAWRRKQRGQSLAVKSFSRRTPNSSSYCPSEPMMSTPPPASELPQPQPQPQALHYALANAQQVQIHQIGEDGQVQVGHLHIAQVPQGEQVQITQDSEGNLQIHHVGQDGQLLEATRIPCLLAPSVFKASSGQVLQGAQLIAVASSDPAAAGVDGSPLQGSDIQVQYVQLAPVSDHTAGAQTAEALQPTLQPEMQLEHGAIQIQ
In words: ITC, 25 C. (In general: ITC needs no label: the signal is the heat of the interaction.)

Results are given in words; binding and its absence hold for the method and conditions named. Some results given as binding are weak or reduced against the parent protein; the word gives no strength.

B1: AT-01C (peptide)
peptide: ATATVNAIRGSVTPAVSQFN
In the case of B1, the binding entry is “binds”.

B2: AT-01D (peptide)
peptide: NAIRGSVTPAVSQFN
For B2, the binding entry was “binds”.
